According to patent publication US20220396794A1, “APTAMERS AGAINST TRANSFERRIN RECEPTOR (TfR)” (APTERNA LIMITED, priority 2019, published 2022):
Some of these results come from one statement about several compounds together.

System: PANC-Luc tumors
Experiment: Liver-metastatic pancreatic cancer mouse model, combinational treatment with gemcitabine
Type: in vivo, NOD/SCID mice
Settings: conjugate 1 nmol combined with gemcitabine 50 mg/kg, compared to vehicle-treated control
Experimental: Intrahepatic pancreatic cancer liver-metastatic mouse model. To create an animal model harboring traceable tumors, a firefly luciferase fragment was inserted into the pLKO.1-AS3 backbone encoding the neo gene (National RNAi Core, Academia Sinica, Taiwan). One day before transduction, 293T cells were plated onto a 6-well plate. On the day of transduction, the medium was replaced with DMEM containing serial dilutions of the transfer plasmids and incubated for 5 h, then the medium was replaced. After two days, the culture medium containing recombinant lentiviral particles was obtained. PANC-1 cells were incubated with recombinant lentiviral particles for 24 h. […] Luciferase expression was assessed using the Luciferase Assay System. […] For the combinational treatment with gemcitabine, tumors were allowed to grow for 2 weeks after inoculation until they could be detected using an IVIS system, then mice were randomly divided into five groups of 10 animals/group. […] Tumor growth was monitored by evaluating bioluminescence using an IVIS 200 in vivo imaging platform (Caliper Life Sciences, Alameda, Calif.) and measuring the difference from before the first injection and one day after the last injection. […] The mice were imaged using the IVIS 200 and bioluminescent signals were analyzed using Living Image Software (Caliper Life Sciences, Alameda, Calif.). […]

TCUT: TR14 ST1-3 with CEBPA sense, a 10-uracil spacer and albumin affinity tag (UUUAUUCACAUUUUUGAAUUGAGCGGUCAUUGUCACUGGUCUUUUUUUUUUUUN; listed as RNA, chemistry not given here)
reduction of tumor growth: ≤ 85%
